Laboratory results reported in PMC9943068.

Biological target: T1, GST-PAF15 wild-type (Xenopus PAF15) (Xenopus) (UniProt Q5HZL4)
T1 sequence: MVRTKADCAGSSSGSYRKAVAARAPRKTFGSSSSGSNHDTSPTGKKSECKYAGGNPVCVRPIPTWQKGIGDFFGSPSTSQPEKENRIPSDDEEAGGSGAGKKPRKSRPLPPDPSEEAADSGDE
Assay: affinity purification with mass spectrometry; Sepharose beads bound to GST or GST-PAF15 incubated with Xenopus interphase egg extracts; bound proteins eluted by cleavage of GST with thrombin; nanoLC-MS/MS; only the target purified

USP7 (Ubiquitin-Specific Protease 7), endogenous Xenopus (enzyme)
binding: binds

No constants are given. Whether binding was seen depends on the method and setting. Binding seen in cells or lysates may run through a third protein. These calls come from enrichment with a bait or labelling near it, and not all partners need be listed. Where a sequence is shown, tags or fusion partners need not be part of it.
